This note sets out measurements from PMC8250429.

Amino acid sequences for entries named in this document (tags omitted).
UniProt O94921: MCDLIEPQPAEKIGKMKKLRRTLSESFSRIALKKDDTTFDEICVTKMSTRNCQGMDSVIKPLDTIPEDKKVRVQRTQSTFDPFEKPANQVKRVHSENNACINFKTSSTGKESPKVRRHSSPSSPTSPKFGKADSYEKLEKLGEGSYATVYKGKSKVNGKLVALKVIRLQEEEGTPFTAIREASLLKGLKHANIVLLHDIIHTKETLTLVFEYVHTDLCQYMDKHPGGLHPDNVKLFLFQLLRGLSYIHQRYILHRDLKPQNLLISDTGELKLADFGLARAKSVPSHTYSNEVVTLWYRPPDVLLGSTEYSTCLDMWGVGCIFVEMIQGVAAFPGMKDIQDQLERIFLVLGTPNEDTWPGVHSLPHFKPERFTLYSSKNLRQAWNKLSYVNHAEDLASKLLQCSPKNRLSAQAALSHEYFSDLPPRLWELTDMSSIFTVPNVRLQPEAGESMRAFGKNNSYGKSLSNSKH

These are yes or no findings as the source states them, for the method shown. In cells and extracts the contact can be indirect. Some results given as binding are weak or reduced against the parent protein; the word gives no strength.

This assay concerns the target PFTAIRE protein kinase 1 (PFTK1) (human (endogenous in H1299)) (UniProt O94921). The experiment in a line: co-IP; H1299-CCNYm and H1299-CCNYc cells (stably expressing GFP-tagged CCNY isoforms); which protein was precipitated and the conditions are not told.

As for “Cyclin Y isoform 1 (CCNYm, membrane isoform) with GFP tag (from UniProt Q8ND76-1 1-341)”, the binding entry is recorded as “binds”.
